In article PMC5896956, “Small molecule induced oligomerization, clustering and clathrin-independent endocytosis of the dopamine transporter” (eLife, 2018):
Results are given in words; binding and its absence hold for the method and conditions named. For some of these results: Binding seen in cells or lysates may run through a third protein. Some binding calls cover weakened binding; strength is not graded here. One block for each substance: values may come before it.

Protein sequences, listed by entry. Tags and fused reporters are not part of them.
UniProt Q61327: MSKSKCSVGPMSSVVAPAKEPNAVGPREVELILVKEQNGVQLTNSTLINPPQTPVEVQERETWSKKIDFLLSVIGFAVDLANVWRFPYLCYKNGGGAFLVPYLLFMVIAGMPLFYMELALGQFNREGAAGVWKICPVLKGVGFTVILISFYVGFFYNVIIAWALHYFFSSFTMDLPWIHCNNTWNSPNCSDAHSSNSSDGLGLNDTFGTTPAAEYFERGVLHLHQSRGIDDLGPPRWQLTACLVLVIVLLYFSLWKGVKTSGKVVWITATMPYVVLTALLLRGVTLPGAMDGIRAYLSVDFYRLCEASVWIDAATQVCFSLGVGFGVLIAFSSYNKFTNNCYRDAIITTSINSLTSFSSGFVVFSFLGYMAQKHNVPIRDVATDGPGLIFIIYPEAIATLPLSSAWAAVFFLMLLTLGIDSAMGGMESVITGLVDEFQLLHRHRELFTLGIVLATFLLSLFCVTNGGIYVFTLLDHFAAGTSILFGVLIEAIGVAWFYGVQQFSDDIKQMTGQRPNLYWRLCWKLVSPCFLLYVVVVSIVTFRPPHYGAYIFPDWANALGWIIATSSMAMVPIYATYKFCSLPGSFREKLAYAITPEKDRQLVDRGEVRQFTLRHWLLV

Legend:
[1] = target: W63A mutant of YFP-HA-DAT (human) (UniProt Q01959); assay: SDS-resistant oligomers on SDS-PAGE and western blot; PAE cells stably expressing the tagged transporter, vehicle (DMSO) or 20 µM AIM-100 for 2 hr at 37°C (also after cocaine, dopamine, amphetamine, modafinil, KRCA-0008, CHC siRNA, at 4°C or 20°C); lysis in TGH buffer, Laemmli buffer (2% SDS, 5% β-mercaptoethanol) 5 min at 95°C, 7.5% SDS-PAGE, blot with GFP antibody; oligomers (O) against monomers (M)
[2] = target: DAT fused to yellow fluorescent protein (YFP) (YFP-DAT) (human) (UniProt Q01959); assay: as above
[3] = target: DAT fused to yellow fluorescent protein (YFP) (YFP-DAT) (human) (UniProt Q01959); assay: FRET or BRET; sensitized FRET microscopy from CFP to YFP in living PAE cells stably co-expressing CFP-DAT and YFP-DAT; DMSO or 20 µM AIM-100 for 90 min at 37°C, imaging at room temperature (20°C)
[4] = target: HA-DAT (endogenous, HA-DAT knock-in mouse) (mouse) (UniProt Q61327); assay: SDS-resistant oligomers on SDS-PAGE and western blot; striatal synaptosomes of adult HA-DAT mice in KRH/G, vehicle (DMSO) or 10–20 µM AIM-100 for 2 hr at 37°C; pelleted synaptosomes denatured in Laemmli buffer, SDS-PAGE, blot with DAT antibody

binding [1]: binds
Substance: W63A mutant of YFP-HA-DAT (from UniProt Q01959 1-620)

binding [2]: binds
Substance: DAT fused to yellow fluorescent protein (YFP) (YFP-DAT) (from UniProt Q01959 1-620)
binding [3]: binds

binding [4]: binds
Substance: HA-DAT (endogenous, HA-DAT knock-in mouse) (from UniProt Q61327 1-619)
